# Reference: the supplement of paper PMC10849652
# By UniProt entry, the sequences of proteins in these tests, tags left out. Where a name states a change or a piece, a line headed by the entry shows the natural chain unless it says otherwise.
# UniProt P07741: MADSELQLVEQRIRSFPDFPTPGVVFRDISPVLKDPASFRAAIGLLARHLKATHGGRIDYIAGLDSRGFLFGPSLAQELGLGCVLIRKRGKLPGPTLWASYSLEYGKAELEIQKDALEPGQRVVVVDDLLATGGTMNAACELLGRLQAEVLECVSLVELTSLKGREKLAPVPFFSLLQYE
# UniProt P84085: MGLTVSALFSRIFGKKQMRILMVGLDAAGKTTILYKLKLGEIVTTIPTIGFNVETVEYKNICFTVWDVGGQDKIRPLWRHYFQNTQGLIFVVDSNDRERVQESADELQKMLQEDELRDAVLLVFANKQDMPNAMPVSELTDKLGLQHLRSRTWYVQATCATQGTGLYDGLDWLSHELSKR
# UniProt O75915: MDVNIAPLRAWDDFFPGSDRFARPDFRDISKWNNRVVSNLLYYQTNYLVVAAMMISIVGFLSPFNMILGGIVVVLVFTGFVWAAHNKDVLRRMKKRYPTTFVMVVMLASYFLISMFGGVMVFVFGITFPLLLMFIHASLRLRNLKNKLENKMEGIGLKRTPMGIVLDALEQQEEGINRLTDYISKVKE
# UniProt P52565: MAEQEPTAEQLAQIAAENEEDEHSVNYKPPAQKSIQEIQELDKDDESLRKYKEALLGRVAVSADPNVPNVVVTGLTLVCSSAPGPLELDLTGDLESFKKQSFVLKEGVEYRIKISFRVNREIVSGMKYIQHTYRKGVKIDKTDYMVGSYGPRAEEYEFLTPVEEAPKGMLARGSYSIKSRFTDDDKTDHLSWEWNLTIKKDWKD
# UniProt Q9Y587: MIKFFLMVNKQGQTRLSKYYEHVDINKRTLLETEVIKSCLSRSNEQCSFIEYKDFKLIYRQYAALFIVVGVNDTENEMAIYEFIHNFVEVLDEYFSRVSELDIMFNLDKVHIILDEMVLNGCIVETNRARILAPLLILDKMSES
# UniProt P62330: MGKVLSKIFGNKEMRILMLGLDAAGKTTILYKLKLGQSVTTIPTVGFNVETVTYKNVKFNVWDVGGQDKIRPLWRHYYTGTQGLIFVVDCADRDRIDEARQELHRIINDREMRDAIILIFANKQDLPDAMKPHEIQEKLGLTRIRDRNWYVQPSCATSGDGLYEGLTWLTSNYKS
# UniProt P02647, whole entry, looked up: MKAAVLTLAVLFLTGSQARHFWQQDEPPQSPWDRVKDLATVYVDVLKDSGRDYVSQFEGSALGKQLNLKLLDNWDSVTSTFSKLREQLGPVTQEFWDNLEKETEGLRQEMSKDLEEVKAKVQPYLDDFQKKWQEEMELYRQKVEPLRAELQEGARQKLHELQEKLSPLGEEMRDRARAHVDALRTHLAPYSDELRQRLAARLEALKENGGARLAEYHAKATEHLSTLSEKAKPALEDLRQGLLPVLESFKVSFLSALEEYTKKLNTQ
# UniProt Q92974: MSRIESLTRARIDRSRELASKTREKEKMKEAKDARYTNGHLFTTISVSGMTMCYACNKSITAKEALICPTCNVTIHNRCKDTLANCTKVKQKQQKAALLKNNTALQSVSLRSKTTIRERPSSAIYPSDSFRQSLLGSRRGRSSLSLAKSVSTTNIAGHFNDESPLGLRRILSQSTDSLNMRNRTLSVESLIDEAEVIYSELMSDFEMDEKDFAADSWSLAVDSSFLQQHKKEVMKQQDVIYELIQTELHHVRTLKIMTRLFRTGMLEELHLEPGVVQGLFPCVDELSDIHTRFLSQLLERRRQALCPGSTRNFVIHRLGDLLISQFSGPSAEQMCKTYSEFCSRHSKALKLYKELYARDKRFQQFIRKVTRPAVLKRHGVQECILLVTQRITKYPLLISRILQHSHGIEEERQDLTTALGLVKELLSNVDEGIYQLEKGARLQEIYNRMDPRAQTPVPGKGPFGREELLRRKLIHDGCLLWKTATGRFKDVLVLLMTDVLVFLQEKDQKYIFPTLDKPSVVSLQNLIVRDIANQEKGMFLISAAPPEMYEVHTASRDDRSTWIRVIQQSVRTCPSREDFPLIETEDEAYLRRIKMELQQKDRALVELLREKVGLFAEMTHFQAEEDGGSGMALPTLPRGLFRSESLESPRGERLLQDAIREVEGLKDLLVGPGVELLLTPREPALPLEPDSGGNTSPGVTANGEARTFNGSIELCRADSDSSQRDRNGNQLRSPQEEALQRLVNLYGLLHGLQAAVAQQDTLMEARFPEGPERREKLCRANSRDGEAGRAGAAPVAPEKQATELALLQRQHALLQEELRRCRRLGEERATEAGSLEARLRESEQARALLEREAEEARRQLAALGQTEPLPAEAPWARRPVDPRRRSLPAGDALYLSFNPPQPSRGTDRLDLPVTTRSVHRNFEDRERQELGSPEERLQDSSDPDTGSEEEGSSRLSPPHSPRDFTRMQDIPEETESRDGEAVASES
# UniProt Q9NZN5: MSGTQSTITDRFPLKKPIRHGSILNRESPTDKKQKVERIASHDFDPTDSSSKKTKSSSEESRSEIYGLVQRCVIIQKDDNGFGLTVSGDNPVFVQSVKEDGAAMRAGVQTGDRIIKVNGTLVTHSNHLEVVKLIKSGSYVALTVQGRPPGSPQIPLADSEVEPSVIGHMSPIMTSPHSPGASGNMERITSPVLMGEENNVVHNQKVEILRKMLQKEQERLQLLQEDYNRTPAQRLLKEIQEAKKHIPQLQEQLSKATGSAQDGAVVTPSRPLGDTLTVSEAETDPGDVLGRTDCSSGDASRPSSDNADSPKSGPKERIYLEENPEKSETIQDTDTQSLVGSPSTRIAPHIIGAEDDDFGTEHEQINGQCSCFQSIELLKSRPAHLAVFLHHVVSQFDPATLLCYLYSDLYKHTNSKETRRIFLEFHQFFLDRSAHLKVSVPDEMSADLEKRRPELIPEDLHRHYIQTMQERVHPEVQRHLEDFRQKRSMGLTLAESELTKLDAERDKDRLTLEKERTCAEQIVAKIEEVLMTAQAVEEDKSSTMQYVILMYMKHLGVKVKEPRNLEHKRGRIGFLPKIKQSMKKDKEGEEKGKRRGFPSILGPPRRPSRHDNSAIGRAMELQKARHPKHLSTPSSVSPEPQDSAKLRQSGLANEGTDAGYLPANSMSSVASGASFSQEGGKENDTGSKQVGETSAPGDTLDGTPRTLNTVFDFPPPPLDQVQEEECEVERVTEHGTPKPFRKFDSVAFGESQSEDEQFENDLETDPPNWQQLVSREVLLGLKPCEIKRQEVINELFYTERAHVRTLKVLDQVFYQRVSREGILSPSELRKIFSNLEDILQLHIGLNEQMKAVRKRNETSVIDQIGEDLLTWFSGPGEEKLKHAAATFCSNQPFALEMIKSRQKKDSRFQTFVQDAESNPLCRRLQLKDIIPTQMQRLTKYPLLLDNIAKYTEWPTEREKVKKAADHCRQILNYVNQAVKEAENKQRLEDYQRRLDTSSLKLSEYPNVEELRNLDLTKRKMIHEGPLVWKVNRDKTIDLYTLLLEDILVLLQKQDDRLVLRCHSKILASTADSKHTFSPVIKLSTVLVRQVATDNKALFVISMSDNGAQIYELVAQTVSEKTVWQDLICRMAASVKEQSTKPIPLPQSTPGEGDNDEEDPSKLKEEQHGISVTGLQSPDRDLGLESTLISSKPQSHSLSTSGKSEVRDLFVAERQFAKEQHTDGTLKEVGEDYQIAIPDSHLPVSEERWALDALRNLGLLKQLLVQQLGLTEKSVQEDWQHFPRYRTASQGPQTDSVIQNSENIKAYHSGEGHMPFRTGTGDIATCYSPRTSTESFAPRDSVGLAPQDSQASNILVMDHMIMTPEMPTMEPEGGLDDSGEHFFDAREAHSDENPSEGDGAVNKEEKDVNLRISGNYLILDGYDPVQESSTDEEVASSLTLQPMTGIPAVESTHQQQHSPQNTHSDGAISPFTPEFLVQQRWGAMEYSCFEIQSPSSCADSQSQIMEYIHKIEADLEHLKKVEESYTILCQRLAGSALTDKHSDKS
# UniProt Q9Y6D5: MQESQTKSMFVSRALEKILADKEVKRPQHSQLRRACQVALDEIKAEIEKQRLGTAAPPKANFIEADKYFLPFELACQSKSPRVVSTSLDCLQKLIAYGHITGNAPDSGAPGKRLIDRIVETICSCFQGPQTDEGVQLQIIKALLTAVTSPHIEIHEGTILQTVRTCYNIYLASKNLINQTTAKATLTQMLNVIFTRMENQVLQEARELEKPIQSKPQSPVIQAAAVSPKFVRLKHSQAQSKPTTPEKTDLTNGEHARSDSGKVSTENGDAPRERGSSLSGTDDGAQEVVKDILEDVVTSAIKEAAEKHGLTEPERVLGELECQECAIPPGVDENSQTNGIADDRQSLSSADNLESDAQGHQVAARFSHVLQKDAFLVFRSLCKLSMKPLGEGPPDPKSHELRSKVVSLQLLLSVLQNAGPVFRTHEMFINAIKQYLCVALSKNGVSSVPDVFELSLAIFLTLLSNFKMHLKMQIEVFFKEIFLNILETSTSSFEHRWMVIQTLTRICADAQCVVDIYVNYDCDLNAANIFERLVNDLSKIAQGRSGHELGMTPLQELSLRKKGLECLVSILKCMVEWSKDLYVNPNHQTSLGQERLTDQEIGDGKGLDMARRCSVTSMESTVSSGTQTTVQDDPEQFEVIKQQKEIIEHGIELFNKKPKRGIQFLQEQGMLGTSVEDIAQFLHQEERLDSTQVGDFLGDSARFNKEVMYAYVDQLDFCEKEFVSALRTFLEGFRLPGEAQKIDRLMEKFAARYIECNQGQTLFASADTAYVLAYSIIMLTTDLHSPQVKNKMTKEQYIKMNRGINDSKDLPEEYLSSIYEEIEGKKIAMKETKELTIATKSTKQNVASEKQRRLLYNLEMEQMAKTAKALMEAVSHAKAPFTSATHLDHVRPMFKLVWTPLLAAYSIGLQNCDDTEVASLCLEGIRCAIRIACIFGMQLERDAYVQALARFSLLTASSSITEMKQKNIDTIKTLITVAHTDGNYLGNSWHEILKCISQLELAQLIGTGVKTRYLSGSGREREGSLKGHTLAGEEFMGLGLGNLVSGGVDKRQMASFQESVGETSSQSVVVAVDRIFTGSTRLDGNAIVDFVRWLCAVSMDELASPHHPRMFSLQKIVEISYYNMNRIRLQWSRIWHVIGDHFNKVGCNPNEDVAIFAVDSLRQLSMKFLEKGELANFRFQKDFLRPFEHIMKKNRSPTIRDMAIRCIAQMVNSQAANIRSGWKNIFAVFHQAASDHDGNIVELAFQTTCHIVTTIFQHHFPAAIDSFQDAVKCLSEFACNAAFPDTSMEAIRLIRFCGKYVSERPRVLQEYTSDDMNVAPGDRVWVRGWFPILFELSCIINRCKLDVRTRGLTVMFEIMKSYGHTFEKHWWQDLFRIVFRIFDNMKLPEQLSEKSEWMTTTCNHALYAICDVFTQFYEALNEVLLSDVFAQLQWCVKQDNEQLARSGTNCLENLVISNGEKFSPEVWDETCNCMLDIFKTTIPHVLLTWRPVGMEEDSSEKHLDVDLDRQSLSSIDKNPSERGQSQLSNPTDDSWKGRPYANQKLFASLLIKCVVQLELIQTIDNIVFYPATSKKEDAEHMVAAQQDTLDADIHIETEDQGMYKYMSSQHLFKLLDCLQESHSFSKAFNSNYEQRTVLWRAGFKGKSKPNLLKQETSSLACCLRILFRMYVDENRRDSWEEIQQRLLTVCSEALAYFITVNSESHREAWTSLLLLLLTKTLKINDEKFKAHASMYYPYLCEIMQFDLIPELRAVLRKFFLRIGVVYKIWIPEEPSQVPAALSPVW
# UniProt Q68EM7: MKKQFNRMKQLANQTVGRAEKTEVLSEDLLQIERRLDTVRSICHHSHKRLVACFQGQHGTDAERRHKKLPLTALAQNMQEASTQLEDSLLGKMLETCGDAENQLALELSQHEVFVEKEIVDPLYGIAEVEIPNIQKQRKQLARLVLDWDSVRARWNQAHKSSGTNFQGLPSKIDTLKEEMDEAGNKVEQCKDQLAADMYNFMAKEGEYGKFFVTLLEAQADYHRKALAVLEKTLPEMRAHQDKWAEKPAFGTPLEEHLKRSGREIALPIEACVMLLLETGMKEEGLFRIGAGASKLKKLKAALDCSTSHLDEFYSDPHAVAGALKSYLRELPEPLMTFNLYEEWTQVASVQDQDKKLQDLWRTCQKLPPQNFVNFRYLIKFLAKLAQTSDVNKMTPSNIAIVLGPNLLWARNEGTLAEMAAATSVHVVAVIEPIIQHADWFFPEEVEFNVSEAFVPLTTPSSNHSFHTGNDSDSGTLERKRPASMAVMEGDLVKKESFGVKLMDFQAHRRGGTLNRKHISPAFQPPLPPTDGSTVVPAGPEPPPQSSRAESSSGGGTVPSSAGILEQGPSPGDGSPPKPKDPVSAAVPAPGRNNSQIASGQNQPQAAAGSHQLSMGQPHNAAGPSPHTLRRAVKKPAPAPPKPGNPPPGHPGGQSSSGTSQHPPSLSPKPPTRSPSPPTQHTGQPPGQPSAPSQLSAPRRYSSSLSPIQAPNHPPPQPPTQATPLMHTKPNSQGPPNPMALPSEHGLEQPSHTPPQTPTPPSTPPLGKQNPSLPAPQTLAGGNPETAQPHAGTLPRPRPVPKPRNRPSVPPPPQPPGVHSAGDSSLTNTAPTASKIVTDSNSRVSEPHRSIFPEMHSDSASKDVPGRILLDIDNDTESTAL
# The other results are listed elsewhere or left out.
# Experiments:
# Test in all cases: log2 fold change, soluble protein after heating vs DMSO (PISA); higher = thermal stabilisation; K562 lysate, 10 uM; active = over 0.2 and 3.5 SD of the protein, either way, in both replicates (recomputed)
# vemurafenib = compound: CCCS(=O)(=O)Nc1ccc(F)c(C(=O)c2c[nH]c3ncc(-c4ccc(Cl)cc4)cc23)c1F [vemurafenib]
# In short: (§1)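 K562 pellets were dounce-homogenised in PBS pH 7.4 with 1 mM MgCl2, and the crude extract at 1 mg/mL protein was treated with 10 μM compound for 30 min. Aliquots were heated for 3 min across 48°C-58°C, pooled, and brought to 0.5% NP-40 at 4°C; soluble protein was the supernatant after 21,000xg for 90 min. Soluble protein was quantified by TMTpro 16plex LC-MS/MS with channel sums equalised, and reported as log2 fold change in thermal stability against DMSO controls, with values from duplicates.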
# [1] = compound: CCCS(=O)(=O)Nc1ccc(F)c(C(=O)c2c[nH]c3ncc(Cl)cc23)c1F
# In short: as §1
# barasertib = compound: CCN(CCCOc1ccc2c(Nc3cc(CC(=O)Nc4cccc(F)c4)[nH]n3)ncnc2c1)CCOP(=O)(O)O [barasertib]
# In short: as §1
# [2] = compound: CC[C@@H]1C(=O)N(C)c2cnc(Nc3ccc(C(=O)NC4CCN(C)CC4)cc3OC)nc2N1C1CCCC1
# In short: as §1
# volasertib = compound: CC[C@@H]1C(=O)N(C)c2cnc(Nc3ccc(C(=O)N[C@H]4CC[C@H](N5CCN(CC6CC6)CC5)CC4)cc3OC)nc2N1C(C)C [volasertib]
# In short: as §1
# [3] = compound: CCn1c(C(=O)N(C2CC2)C2CC2)cc2c3c(ncn3C)c(Nc3cc(C)n(C)n3)nc21
# In short: as §1
# [4] = compound: CCn1cc(-c2ccnc3[nH]c(-c4cccc(CN(C)C)c4)cc23)c(-c2ccc(NC(=O)N(C)C)cc2)n1
# In short: as §1
# [5] = compound: CN1CCC(CNc2ccc3ncc(-c4cccc(OC(F)(F)F)c4)n3n2)CC1
# In short: as §1
# saracatinib = compound: CN1CCN(CCOc2cc(OC3CCOCC3)c3c(Nc4c(Cl)ccc5c4OCO5)ncnc3c2)CC1 [saracatinib]
# In short: as §1
# sotrastaurin = compound: CN1CCN(c2nc(C3=C(c4c[nH]c5ccccc45)C(=O)NC3=O)c3ccccc3n2)CC1 [sotrastaurin]
# In short: as §1
Target,log2 fold change (vemurafenib),log2 fold change [1],log2 fold change (barasertib),log2 fold change [2],log2 fold change (volasertib),log2 fold change [3],log2 fold change [4],log2 fold change [5],log2 fold change (saracatinib),log2 fold change (sotrastaurin)
AP5Z1 (UniProt O43299),inactive: 0.155,inactive: 0.054,inactive: 0.031,inactive: 0.096,inactive: 0.056,inactive: 0.021,inactive: -0.161,inactive: 0.068,inactive: 0.008,inactive: -0.002
APRT (UniProt P07741),inactive: 0.037,inactive: 0,inactive: 0.077,inactive: -0.029,inactive: -0.089,inactive: 0.006,inactive: -0.029,inactive: 0.005,inactive: -0.022,inactive: 0.021
ARIH1 (UniProt Q9Y4X5),inactive: -0.015,inactive: 0.003,inactive: -0.009,inactive: -0.017,inactive: 0.014,inactive: -0.039,inactive: 0.082,inactive: 0.005,inactive: -0.011,inactive: -0.013
ASAP3 (UniProt Q8TDY4),inactive: 0.1,inactive: 0.023,inactive: 0.526,inactive: -0.009,inactive: -0.041,inactive: -0.045,inactive: 0.082,inactive: 0.06,inactive: 0.03,inactive: 0.055
ARHGAP1 (UniProt Q07960),inactive: 0.012,inactive: 0.007,inactive: -0.024,inactive: 0.012,inactive: 0.031,inactive: -0.028,inactive: -0.004,inactive: 0.024,inactive: -0.009,inactive: 0.015
ARGLU1 (UniProt Q9NWB6),inactive: -0.013,inactive: 0.027,inactive: -0.043,inactive: 0.001,inactive: 0.027,inactive: -0.035,inactive: 0.073,inactive: -0.02,inactive: 0.047,inactive: -0.019
ARL1 (UniProt P40616),inactive: 0.046,inactive: 0.007,inactive: -0.031,inactive: 0.03,inactive: -0.066,inactive: -0.04,inactive: -0.101,inactive: -0.005,inactive: -0.005,inactive: 0.042
APOL2 (UniProt J3KQL8),inactive: 0.066,inactive: -0.028,inactive: 0.097,inactive: -0.289,inactive: -0.141,inactive: 0.037,inactive: 0.087,inactive: -0.045,inactive: -0.006,inactive: 0.003
APOBEC3G (UniProt Q9HC16),inactive: 0.003,inactive: 0.016,inactive: -0.036,inactive: 0.051,inactive: -0.016,inactive: -0.027,inactive: -0.029,inactive: -0.005,inactive: -0.008,inactive: -0.009
ARHGEF1 (UniProt M0QZR4),inactive: 0.014,inactive: 0.004,inactive: 0.023,inactive: -0.025,inactive: -0.041,inactive: 0.014,inactive: -0.08,inactive: 0.013,inactive: 0.009,inactive: 0.018
ARV1 (UniProt Q9H2C2),inactive: -0.108,inactive: 0.036,inactive: 0,inactive: 0.097,inactive: 0.002,inactive: 0.096,inactive: -0.158,inactive: 0.023,inactive: -0.042,inactive: 0.225
ARF5 (UniProt P84085),inactive: -0.009,inactive: 0.007,inactive: -0.022,inactive: 0.017,inactive: 0.035,inactive: 0.009,inactive: -0.071,inactive: 0.043,inactive: -0.032,inactive: 0.028
ARL6IP5 (UniProt O75915),inactive: -0.065,inactive: -0.006,inactive: 0,inactive: -0.124,inactive: 0.015,inactive: -0.015,inactive: 0.187,inactive: -0.124,inactive: -0.013,inactive: 0.007
ARHGDIA (UniProt P52565),inactive: 0,inactive: -0.014,inactive: -0.013,inactive: 0.046,inactive: 0.023,inactive: -0.039,inactive: -0.194,inactive: 0.024,inactive: -0.012,inactive: -0.005
AP4S1 (UniProt Q9Y587),inactive: 0.02,inactive: -0.008,inactive: -0.051,inactive: -0.183,inactive: -0.032,inactive: 0.087,inactive: -0.063,inactive: -0.019,inactive: 0.06,inactive: 0.044
ARFIP1 isoform 2 (UniProt P53367),inactive: 0.038,inactive: 0.042,inactive: 0.02,inactive: 0.085,inactive: -0.025,inactive: -0.119,inactive: 0.068,inactive: -0.012,inactive: -0.018,
ARF6 (UniProt P62330),inactive: -0.033,inactive: -0.025,inactive: -0.124,inactive: -0.007,inactive: -0.028,inactive: -0.006,inactive: -0.085,inactive: 0.061,inactive: -0.044,inactive: 0.018
APOBR (UniProt Q0VD83),inactive: -0.019,inactive: 0.044,inactive: 0.024,inactive: 0.037,inactive: 0.022,inactive: -0.051,inactive: 0.016,inactive: 0.007,inactive: 0.035,inactive: 0.014
ARHGAP18 (UniProt Q8N392),inactive: -0.047,inactive: 0.002,inactive: 0.038,inactive: -0.022,inactive: 0.006,inactive: 0,inactive: -0.013,inactive: 0.002,inactive: 0.019,inactive: 0.024
ARMCX5 (UniProt Q6P1M9),inactive: 0,inactive: 0.032,inactive: 0.007,inactive: -0.034,inactive: -0.012,inactive: -0.027,inactive: -0.099,inactive: -0.03,inactive: 0.043,
ARL15 (UniProt Q9NXU5),inactive: -0.057,inactive: -0.019,inactive: 0.002,inactive: -0.082,inactive: -0.009,inactive: 0.035,active: 0.765,inactive: -0.119,inactive: -0.01,inactive: 0.049
APOA1 (UniProt P02647),inactive: 0.033,inactive: 0.029,inactive: 0.074,inactive: 0.096,inactive: 0.107,inactive: -0.096,inactive: -0.039,inactive: 0.072,inactive: -0.049,inactive: -0.058
ARHGEF2 (UniProt Q92974),inactive: -0.006,inactive: 0.013,inactive: -0.002,inactive: 0,inactive: -0.026,inactive: -0.021,inactive: -0.02,inactive: -0.003,inactive: 0.009,inactive: 0.027
ARHGEF12 (UniProt Q9NZN5),inactive: 0.014,inactive: 0.026,inactive: 0.051,inactive: 0.003,inactive: 0.006,inactive: 0.041,inactive: -0.226,inactive: 0.055,inactive: 0.031,inactive: 0.029
ARID1A (UniProt O14497),inactive: 0.011,inactive: 0.009,inactive: 0.102,inactive: -0.053,inactive: -0.027,inactive: 0.03,inactive: -0.003,inactive: -0.004,inactive: -0.006,inactive: 0.012
APTX (UniProt Q7Z2E3),inactive: -0.032,inactive: 0.019,inactive: -0.003,inactive: 0.087,inactive: -0.12,inactive: -0.015,inactive: 0.073,inactive: -0.047,inactive: -0.022,inactive: 0.07
ARFGEF2 (UniProt Q9Y6D5),inactive: -0.035,inactive: 0.028,inactive: 0.038,inactive: -0.044,inactive: -0.065,inactive: 0.013,inactive: -0.033,inactive: -0.037,inactive: 0.055,inactive: -0.01
ARHGAP17 (UniProt Q68EM7),inactive: 0.059,inactive: 0.016,inactive: -0.025,inactive: -0.05,inactive: -0.038,inactive: 0.023,inactive: 0.077,inactive: -0.027,inactive: -0.008,inactive: 0.009

# An excerpt of these results, as tab-separated lines.
Target	log2 fold change (vemurafenib)	log2 fold change [1]	log2 fold change (barasertib)	log2 fold change [2]	log2 fold change (volasertib)	log2 fold change [3]	log2 fold change [4]	log2 fold change [5]	log2 fold change (saracatinib)	log2 fold change (sotrastaurin)
AP5Z1 (UniProt O43299)	inactive: 0.155	inactive: 0.054	inactive: 0.031	inactive: 0.096	inactive: 0.056	inactive: 0.021	inactive: -0.161	inactive: 0.068	inactive: 0.008	inactive: -0.002
APRT (UniProt P07741)	inactive: 0.037	inactive: 0	inactive: 0.077	inactive: -0.029	inactive: -0.089	inactive: 0.006	inactive: -0.029	inactive: 0.005	inactive: -0.022	inactive: 0.021
